Experimental data from PubChem BioAssay AID248 (DTP/NCI, 2004).
The list does not hold the whole screen: it is rich in T/C values a quarter to a half above the control, in often repeated tests (any T/C) and in doses without a T/C. Further doses and runs are listed elsewhere. T/C is the treated group as % of the vehicle group. Some entries give survivors of the animals treated and no T/C: the source holds a T/C of zero for them, seemingly a mark for toxic or unscored doses. Some doses without a T/C left all or most animals alive at the check, yet need not have been tolerated: survival well below the control is almost never listed, so the zero probably covers shortened survival too. Survivors were counted at the toxicity check, usually on the fifth day, unless a day is given; later deaths do not show. Schedules are NCI's codes, read here as Q, the interval in days (D) or hours (H), X, the number of doses. Some entries hold several experiments; the values are given in rising order. Where survival is the endpoint, the PubChem record calls one and a half times the control and up active, and a quarter to a half above the control has no call in these data; cut-offs in other NCI protocols can differ. Marks such as (2×) give the number of equal values in this list. Some T/C values are followed by the survivors on the day toxicity was checked, most often the fifth; without a count, all were alive then.

Test system: L1210 leukemia ip in BDF1 mice, survival T/C
Assay: NCI In Vivo Anticancer Drug Screen. Data for tumor model L1210 Leukemia (intraperitoneal) in B6D2F1 (BDF1) mice
Settings: T/C endpoint: mean survival time, higher T/C = longer survival
[1] = dose: 100.0 mg/kg/injection, schedule: Q01DX009 (ip), vehicle: saline
[2] = dose: 400.0 mg/kg/injection, schedule: Q01DX001 (ip), vehicle: saline
[3] = dose: 200.0 mg/kg/injection, schedule: Q01DX001 (ip), vehicle: saline
[4] = dose: 400.0 mg/kg/injection, schedule: Q01DX009 (ip), vehicle: saline with Tween-80
[5] = dose: 50.0 mg/kg/injection, schedule: Q01DX009 (ip), vehicle: Klucel (hydroxypropylcellulose) (HPC)
[6] = dose: 100.0 mg/kg/injection, schedule: Q04DX003 (ip), vehicle: Klucel (hydroxypropylcellulose) (HPC)
[7] = dose: 200.0 mg/kg/injection, schedule: Q04DX003 (ip), vehicle: Klucel (hydroxypropylcellulose) (HPC)
[8] = dose: 400.0 mg/kg/injection, schedule: Q04DX003 (ip), vehicle: Klucel (hydroxypropylcellulose) (HPC)
[9] = dose: 400.0 mg/kg/injection, schedule: Q04DX002 (ip), vehicle: saline with Tween-80
[10] = dose: 300.0 mg/kg/injection, schedule: Q01DX001 (ip), vehicle: saline
[11] = dose: 200.0 mg/kg/injection, schedule: Q01DX009 (ip), vehicle: saline with Tween-80
[12] = dose: 400.0 mg/kg/injection, schedule: Q04DX003 (ip), vehicle: saline with Tween-80
[13] = dose: 100.0 mg/kg/injection, schedule: Q04DX002 (ip), vehicle: saline with Tween-80

For CC1(C)N=C(N)N=C(N)N1c1cccc(S(=O)(=O)F)c1, the survivor count [1] was 0 of 6, the survivor count [2] was 0 of 6 and the survivor count (dose: 500.0 mg/kg/injection, schedule: Q01DX009 (ip), vehicle: saline) was 0 of 6.
ClC1CCCCCCCCC1 was tested, and the survivor count [3] was 4 of 4.
For Cc1ccc(S(=O)(=O)N/N=C(/c2ccccc2)c2cccs2)cc1, the survivor count [4] was 6 of 6.
With COc1ccc(/C=N/n2c3ccccc3c3ccccc32)cc1OCCN(C)C the survivor count [5] was 3 of 6, the survivor count [6] was 4 of 4 and the survivor count [7] was 0 of 4. For the same molecule, the survivor count [8] was 4 of 4.
In the case of OC1C=Cc2ccccc21 (configuration not stated), the survivor count (dose: 400.0 mg/kg/injection, schedule: Q04DX002 (ip), vehicle: other) is reported as 0 of 3.
For CCCCCCCCCCCCCCCCCC(=O)[O][Sn]([CH2]CCC)([CH2]CCC)[O]C(=O)CCCCCCCCCCCCCCCCC, the survivor count (dose: 25.0 mg/kg/injection, schedule: Q04DX003 (ip), vehicle: other) was 4 of 6 and the survivor count (dose: 100.0 mg/kg/injection, schedule: Q04DX003 (ip), vehicle: other) was 1 of 6.
In the case of O=C(O)C1=CCC=CC1C(=O)O (configuration not stated), the survivor count (dose: 400.0 mg/kg/injection, schedule: Q04DX003 (ip), vehicle: saline) is reported as 2 of 6.
For CCCC(=O)CCCCNC(=O)c1ccccc1, the survivor count [9] was 1 of 3.
With Cc1ccc2c(ccc[n+]2C)c1 the survivor count [10] was 0 of 6.
For COc1ccc(NC(=O)Oc2ccc(Cl)cc2Cl)c(Cl)c1, the survivor count [5] was 0 of 6, the survivor count (dose: 100.0 mg/kg/injection, schedule: Q01DX009 (ip), vehicle: Klucel (hydroxypropylcellulose) (HPC)) was 5 of 6 and the survivor count (dose: 200.0 mg/kg/injection, schedule: Q01DX009 (ip), vehicle: Klucel (hydroxypropylcellulose) (HPC)) was 1 of 6. For the same molecule, the survivor count (dose: 400.0 mg/kg/injection, schedule: Q01DX009 (ip), vehicle: Klucel (hydroxypropylcellulose) (HPC)) was 0 of 6.
With CCCCOP(=O)(OCCCC)O/C(C)=C(\C)OP(=O)(OCC)OCC the T/C (dose: 100.0 mg/kg/injection, schedule: Q04DX002 (ip), vehicle: saline) was 95, 97 (2×), 101 % of control, the survivor count (dose: 200.0 mg/kg/injection, schedule: Q04DX002 (ip), vehicle: saline) was 3 of 3 and the survivor count (dose: 400.0 mg/kg/injection, schedule: Q04DX002 (ip), vehicle: saline) was 2 of 6 and 3 of 3.
COc1cc(/C=N/NC(=O)c2ccccc2Cl)ccc1O was tested, and the survivor count (dose: 100.0 mg/kg/injection, schedule: Q01DX009 (ip), vehicle: saline with Tween-80) was 3 of 3 and the survivor count [11] was 3 of 3.
For CCN(CC)CCCN(C)C(=O)C(O)(c1ccccc1)c1ccccc1, the survivor count [3] was 0 of 3 and the survivor count [2] was 0 of 3.
For Cc1cc(N=Cc2cccc([N+](=O)[O-])c2O)c2ccccc2n1, the survivor count (dose: 200.0 mg/kg/injection, schedule: Q01DX001 (ip), vehicle: other) was 0 of 4 and the survivor count (dose: 400.0 mg/kg/injection, schedule: Q01DX001 (ip), vehicle: other) was 0 of 4.
For C=CCOCCN1CCN(CCCN2c3ccccc3Sc3ccc(C(F)(F)F)cc32)CC1, the survivor count (dose: 4.37 mg/kg/injection, schedule: Q01DX009 (ip), vehicle: saline) was 6 of 6, the survivor count (dose: 8.75 mg/kg/injection, schedule: Q01DX009 (ip), vehicle: saline) was 6 of 6 and the survivor count (dose: 17.5 mg/kg/injection, schedule: Q01DX009 (ip), vehicle: saline) was 0 of 6. For the same molecule, the T/C (dose: 25.0 mg/kg/injection, schedule: Q04DX003 (ip), vehicle: saline) was 125 % of control, the T/C (dose: 35.0 mg/kg/injection, schedule: Q01DX003 (ip), vehicle: saline) was 129 % of control and the T/C (dose: 35.0 mg/kg/injection, schedule: Q04DX003 (ip), vehicle: saline) was 148 % of control [5 of 6 alive]. The survivor count (dose: 50.0 mg/kg/injection, schedule: Q04DX003 (ip), vehicle: saline) was 1 of 6 and the survivor count (dose: 100.0 mg/kg/injection, schedule: Q04DX003 (ip), vehicle: saline) was 5 of 6.
In the case of CC12CC3CC(C)(C1)CC(SCCN=C(N)CCl)(C3)C2, the survivor count (dose: 100.0 mg/kg/injection, schedule: Q04DX002 (ip), vehicle: Klucel (hydroxypropylcellulose) (HPC)) is reported as 0 of 3, the survivor count (dose: 200.0 mg/kg/injection, schedule: Q04DX002 (ip), vehicle: Klucel (hydroxypropylcellulose) (HPC)) is reported as 0 of 3 and the survivor count (dose: 400.0 mg/kg/injection, schedule: Q04DX002 (ip), vehicle: Klucel (hydroxypropylcellulose) (HPC)) is reported as 0 of 3.
C1=CCOCOC1 was tested, and the survivor count [11] was 0 of 6 and the survivor count [4] was 0 of 6.
With CC1=N/C(=N\c2nc3ccccc3[nH]2)NC(=O)CC1 the survivor count [10] was 2 of 6.
With NC(CSC(c1ccccc1)(c1ccccc1)c1ccc(Cl)cc1)C(=O)O (configuration not stated) the T/C (dose: 3.13 mg/kg/injection, schedule: Q01DX009 (ip), vehicle: acetone) was 139 % of control, the T/C (dose: 6.3 mg/kg/injection, schedule: Q01DX009 (ip), vehicle: other) was 147 % of control and the survivor count (dose: 25.0 mg/kg/injection, schedule: Q01DX009 (ip), vehicle: acetone) was 6 of 6. For the same molecule, the T/C (dose: 25.0 mg/kg/injection, schedule: Q01DX009 (ip), vehicle: other) was 143 % of control, the survivor count (dose: 50.0 mg/kg/injection, schedule: Q01DX009 (ip), vehicle: acetone) was 4 of 6 and the survivor count (dose: 50.0 mg/kg/injection, schedule: Q01DX009 (ip), vehicle: other) was 4 of 6. The survivor count (dose: 100.0 mg/kg/injection, schedule: Q01DX009 (ip), vehicle: other) was 4 of 6.
With O=C(Nc1cccc(Cl)c1)Nc1ccccc1Cl the survivor count (dose: 25.0 mg/kg/injection, schedule: Q04DX003 (ip), vehicle: saline with Tween-80) was 6 of 6 and the survivor count (dose: 100.0 mg/kg/injection, schedule: Q04DX003 (ip), vehicle: saline with Tween-80) was 6 of 6.
CN(C)C(=O)c1cc(C(=O)N(C)C)c[n+](Cc2c(Cl)cccc2Cl)c1 was tested, and the survivor count (dose: 300.0 mg/kg/injection, schedule: Q04DX003 (ip), vehicle: saline) was 6 of 6.
In the case of O=C(NCCCl)Sc1ccc(Cl)cc1, the survivor count [6] is reported as 4 of 6, the survivor count [7] is reported as 4 of 6 and the survivor count [8] is reported as 1 of 6.
For CCOc1cc(C=Nc2cccc(C(F)(F)F)c2)ccc1O, the survivor count (dose: 400.0 mg/kg/injection, schedule: Q01DX009 (ip), vehicle: other) was 2 of 6.
In the case of N#C/C(=C\C=C\c1ccccc1)C(N)=O, the survivor count [12] is reported as 3 of 6.
In the case of CCCCCCC(C)N(C)CCOC(=O)c1ccc([N+](=O)[O-])cc1 (configuration not stated), the survivor count (dose: 300.0 mg/kg/injection, schedule: Q01DX001 (ip), vehicle: other) is reported as 1 of 6.
With O=C(Nc1ccc(Cl)cc1[N+](=O)[O-])Oc1ccccc1C(=O)Nc1ccccc1 the survivor count [11] was 3 of 3.
COc1ccc(Cl)cc1NC(=O)Oc1ccccc1C(N)=O was tested, and the survivor count (dose: 50.0 mg/kg/injection, schedule: Q01DX009 (ip), vehicle: saline) was 5 of 6, the survivor count [1] was 6 of 6 and the T/C [13] was 93 and 98 % of control. The survivor count [13] was 3 of 6 and 3 of 3, the survivor count [11] was 0 of 3 and the survivor count (dose: 200.0 mg/kg/injection, schedule: Q04DX002 (ip), vehicle: saline with Tween-80) was 3 of 3. For the same molecule, the survivor count (dose: 200.0 mg/kg/injection, schedule: Q04DX003 (ip), vehicle: saline with Tween-80) was 6 of 6, the survivor count (dose: 400.0 mg/kg/injection, schedule: Q01DX001 (ip), vehicle: saline with Tween-80) was 0 of 6 and the survivor count [4] was 0 of 3. The survivor count [9] was 0 of 3 and 2 of 6 and the survivor count [12] was 3 of 6.
With CC(=O)OCc1ccc[n+](CCc2c[nH]c3ccccc23)c1 the survivor count [12] was 1 of 6.
With Cc1cccc(C2=CCCCC2)c1 the survivor count (dose: 400.0 mg/kg/injection, schedule: Q01DX001 (ip), vehicle: carboxymethylcellulose (CMC)) was 2 of 4.
